According to PubChem BioAssay AID2417 (National Center for Advancing Translational Sciences (NCATS), 2010):
The whole screen tested about 140,000 compounds, of which about 4,300 (3.1%) were called active. This list was built around the results that the source calls inconclusive (neither active nor inactive); the mix of calls is not that of the screen.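 Rule for the calls: active = readout at or below -70, meaning at least 70% loss of cells showing the perinucleolar compartment, a nuclear body marking cancer cells; inconclusive = readout between -30 and a set limit; inactive = the rest.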

Test: High Content Assay for Compounds that inhibit the Assembly of the Perinucleolar Compartment;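 note: plate controls were DMSO wells for no effect and camptothecin positive control wells for full effect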
Conditions: PC3M PTB-GFP, PNC prevalence imaging, 16 h; at 10 µM; hits give low values
Summary of the method: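 Compounds are pinned in duplicate onto adhered PC3M cells stably expressing GFP-tagged PTB and incubated 16 h at 37 C. Cells are then fixed, nuclei stained with Hoechst, and PNC-positive cells counted.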

Row | Structure (SMILES) | activity change (PNC), negative = inhibition
1 | CC(C)c1cc(C(=O)NCc2ccco2)no1 | inconclusive: -39.7%
2 | COc1ccc(/C=N/NC(=O)c2ccncc2)cc1CSc1nc2ccccc2s1 | inconclusive: -52.8%
3 | CCC(=O)c1ccc(OCCn2cncn2)cc1 | inactive: 22.5%
4 | CC(OC(=O)CN1C(=O)NC(C)(C)C1=O)C(=O)c1ccccc1 (stereo not given) | inconclusive: -42.6%
5 | C=CCNc1sc(C(=O)c2ccc(C)cc2)c(N)c1C#N | inactive: 50.8%
6 | O=C(NCCN1CCN(Cc2ccc([N+](=O)[O-])cc2)CC1)C(=O)Nc1ccccc1 | inconclusive: -43%
7 | Cc1ccc(C(C(=O)NC2CCCC2)N(Cc2ccc3c(c2)OCO3)C(=O)Cc2cccs2)cc1 (stereo not given) | inconclusive: -31.7%
8 | CCn1c(N2CCN(C(=O)NC3CCCCC3)CC2)nc2ccccc21 | inconclusive: -37.1%
9 | O=c1[nH]c2ccccc2nc1-c1cccs1 | inactive: 9.14%
10 | O=C1CC(N2CCC(O)(c3ccc(Cl)cc3)CC2)C(=O)N1 (stereo not given) | inconclusive: -37.6%
11 | Cc1cc(OCC(=O)N2CCCCCC2)ccc1[N+](=O)[O-] | inconclusive: -50%
12 | C/C(=C/CCC(C)[C@H]1CC[C@@]2(C)C3=C(CC[C@]12C)[C@@]1(C)CCC(=O)C(C)(C)[C@@H]1CC3)C(=O)O (stereo not given in full) | inconclusive: -68.7%
13 | O=C(CC1NCCNC1=O)Nc1ccc2c(c1)OCO2 (stereo not given) | active: -90.7%
14 | COc1cc2c(cc1O)C(Cc1ccc(O)cc1)NCC2 (stereo not given) | inconclusive: -56.4%
15 | Cc1cc2nc(C)c(Cc3ccccc3)c(=O)n2[nH]1 | inconclusive: -63.6%
16 | C=CCn1c(C(C)NC(=O)c2cccs2)n[nH]c1=S (stereo not given) | inconclusive: -40%
17 | Nc1ccc(O)cc1C(=O)OCC(=O)C12CC3CC(CC(C3)C1)C2 | inconclusive: -40.8%
18 | CCCSc1nsc(NC(=O)C(c2ccccc2)c2ccccc2)n1 | inconclusive: -60.8%
19 | CC(=O)c1ccc2c(c1)CC(C)C(=O)N2C (stereo not given) | inconclusive: -57.9%
20 | O=C(Cc1ccc(-n2cccc2)cc1)NC1CCCCC1 | inconclusive: -45.1%
21 | COc1ccc(NC(=O)/C=C/c2ccccc2[N+](=O)[O-])c(OC)c1 | inconclusive: -59.9%
22 | Cc1ccc(OCCN2CCN(c3ncnc4sc(C)c(C)c34)CC2)cc1 | inconclusive: -67.9%
23 | Cc1ccc(-c2c(C)n([O-])c3c([n+]2=O)CCCCC3)cc1 | active: -114%
24 | O=C(OCC(=O)N1CCOCC1)c1ccccc1SCC(=O)N1CCCC1 | inactive: 0.753%
25 | Nc1nnc(SCC(=O)N2CCN(c3ccccc3)CC2)n1-c1ccccc1 | inconclusive: -32.2%

Part of the list above, as labelled records.
COc1ccc(NC(=O)/C=C/c2ccccc2[N+](=O)[O-])c(OC)c1
  activity change (PNC), negative = inhibition: inconclusive: -59.9%
Nc1nnc(SCC(=O)N2CCN(c3ccccc3)CC2)n1-c1ccccc1
  activity change (PNC), negative = inhibition: inconclusive: -32.2%
